Five molecules from publication PMC4446429 can be followed below.

By UniProt entry, the sequences of proteins in these tests, tags left out. Residues count along the entry.
UniProt Q68E01: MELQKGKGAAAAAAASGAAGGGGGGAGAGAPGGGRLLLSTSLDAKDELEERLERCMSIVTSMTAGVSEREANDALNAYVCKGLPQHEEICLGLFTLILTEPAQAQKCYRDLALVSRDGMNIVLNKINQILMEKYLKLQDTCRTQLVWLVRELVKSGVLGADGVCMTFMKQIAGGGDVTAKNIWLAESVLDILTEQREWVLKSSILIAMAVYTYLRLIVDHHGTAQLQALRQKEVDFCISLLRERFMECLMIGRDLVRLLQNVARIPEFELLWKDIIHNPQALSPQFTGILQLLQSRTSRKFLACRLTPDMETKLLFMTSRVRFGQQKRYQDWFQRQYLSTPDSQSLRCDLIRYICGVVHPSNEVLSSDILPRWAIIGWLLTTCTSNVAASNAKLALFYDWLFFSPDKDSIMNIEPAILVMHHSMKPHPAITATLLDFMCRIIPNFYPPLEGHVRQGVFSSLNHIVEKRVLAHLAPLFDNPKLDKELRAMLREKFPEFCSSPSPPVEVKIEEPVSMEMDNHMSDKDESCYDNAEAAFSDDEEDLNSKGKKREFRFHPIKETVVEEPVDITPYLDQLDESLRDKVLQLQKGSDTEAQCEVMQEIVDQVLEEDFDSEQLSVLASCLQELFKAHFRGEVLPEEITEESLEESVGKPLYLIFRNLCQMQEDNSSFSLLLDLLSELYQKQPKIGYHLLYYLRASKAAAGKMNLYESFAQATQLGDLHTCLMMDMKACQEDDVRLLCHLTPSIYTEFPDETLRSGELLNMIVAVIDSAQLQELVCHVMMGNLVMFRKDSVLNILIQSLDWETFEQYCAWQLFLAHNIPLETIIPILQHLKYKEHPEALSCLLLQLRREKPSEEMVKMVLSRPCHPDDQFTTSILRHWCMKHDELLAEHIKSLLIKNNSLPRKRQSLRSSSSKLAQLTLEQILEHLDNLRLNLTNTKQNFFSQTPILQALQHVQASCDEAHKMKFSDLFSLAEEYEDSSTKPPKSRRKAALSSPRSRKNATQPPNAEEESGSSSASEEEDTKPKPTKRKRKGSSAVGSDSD
UniProt Q13535, residues 1-400: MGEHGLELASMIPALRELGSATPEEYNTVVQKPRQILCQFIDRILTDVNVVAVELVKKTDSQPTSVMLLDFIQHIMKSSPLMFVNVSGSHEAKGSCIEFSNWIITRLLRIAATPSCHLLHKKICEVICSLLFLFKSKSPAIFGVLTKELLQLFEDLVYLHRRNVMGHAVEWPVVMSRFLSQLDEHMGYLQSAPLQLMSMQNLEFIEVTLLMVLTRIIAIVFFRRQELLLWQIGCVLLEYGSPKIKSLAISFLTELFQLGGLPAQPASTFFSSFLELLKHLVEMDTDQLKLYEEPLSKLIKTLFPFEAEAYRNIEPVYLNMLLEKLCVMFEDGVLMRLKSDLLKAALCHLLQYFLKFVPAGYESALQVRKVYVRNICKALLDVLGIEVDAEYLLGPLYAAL
UniProt Q9BQ15: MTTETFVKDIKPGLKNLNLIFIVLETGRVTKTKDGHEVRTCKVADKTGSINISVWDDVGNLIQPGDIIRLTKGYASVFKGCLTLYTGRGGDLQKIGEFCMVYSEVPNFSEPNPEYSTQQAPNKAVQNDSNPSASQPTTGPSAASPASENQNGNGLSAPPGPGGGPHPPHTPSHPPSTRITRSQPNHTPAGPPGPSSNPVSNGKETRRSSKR

Results are given in words; binding and its absence hold for the method and conditions named. In cells and extracts the contact can be indirect. Some binding calls cover weakened binding; strength is not graded here. For some assays here: Tags and fused reporters may be left off the sequences shown.

Experiment [1] deals with Myc-INTS3 (human) (UniProt Q68E01). Put plainly: co-IP; 293T cells co-transfected with HA- and Myc-tagged proteins, lysed in NETN buffer (150 mM NaCl, 2 mM EDTA, 50 mM Tris-Cl, 0.2% NP-40); immunoprecipitation with HA antibody (Figure 5A, B) or Myc antibody (Figure 5C, D) on protein A sepharose, immunoblot of the other tag. In general terms: Immunoblotting shows a protein as a band on a membrane.

The target in experiment [2] is HA-ATR (1-400 aa), the ATRIP interacting domain of ATR (human) (UniProt Q13535). The experiment is described as above.
Experiment [3] addresses T1, HA-ATRIP (ATR-interacting protein) (human) (UniProt Q8WXE1).
T1 sequence: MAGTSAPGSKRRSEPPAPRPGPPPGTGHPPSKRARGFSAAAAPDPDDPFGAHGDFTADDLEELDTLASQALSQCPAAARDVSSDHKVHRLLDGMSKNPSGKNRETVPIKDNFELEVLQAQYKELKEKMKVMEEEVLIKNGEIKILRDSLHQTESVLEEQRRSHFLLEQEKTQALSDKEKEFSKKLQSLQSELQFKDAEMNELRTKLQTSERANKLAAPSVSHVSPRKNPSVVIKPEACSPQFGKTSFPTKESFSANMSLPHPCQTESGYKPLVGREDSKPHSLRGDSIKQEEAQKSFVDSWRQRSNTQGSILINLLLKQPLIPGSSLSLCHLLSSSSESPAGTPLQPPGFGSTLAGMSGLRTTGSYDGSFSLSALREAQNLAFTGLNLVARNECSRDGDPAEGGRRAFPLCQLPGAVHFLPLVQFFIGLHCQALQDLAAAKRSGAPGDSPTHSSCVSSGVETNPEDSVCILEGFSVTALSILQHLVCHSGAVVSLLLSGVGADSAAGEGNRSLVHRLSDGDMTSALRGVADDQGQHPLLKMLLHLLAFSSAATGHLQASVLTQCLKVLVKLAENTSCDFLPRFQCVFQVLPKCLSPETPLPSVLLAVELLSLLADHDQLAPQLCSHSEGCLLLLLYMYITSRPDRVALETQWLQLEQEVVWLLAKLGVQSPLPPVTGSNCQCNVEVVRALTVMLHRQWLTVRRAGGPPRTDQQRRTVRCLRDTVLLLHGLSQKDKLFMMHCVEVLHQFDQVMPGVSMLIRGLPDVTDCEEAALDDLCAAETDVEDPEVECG
The experiment is described as above.

Experiment [4] addresses Myc-INTS3 (human) (UniProt Q68E01). Put plainly: co-IP; tagged proteins individually expressed in 293T, immunoprecipitated with anti-Myc or anti-HA antibodies, eluted with Myc or HA peptides; eluates immunoblotted for endogenous RPA70 and RPA32.
The target of experiment [5] is Myc-hSSB1 (human single-stranded DNA-binding protein 1) (human) (UniProt Q9BQ15). The description is as above.

As for “HA-ATR (1-400 aa), the ATRIP interacting domain of ATR (from UniProt Q13535 1-400) (domain or fragment)”, the binding entry in the experiment with Myc-INTS3 (human) [1] is reported as “binds”.
In the case of Myc-INTS3 (from UniProt Q68E01 1-1043), the binding entry in experiment [2] and in experiment [3] was “binds” throughout.
For “Myc-hSSB1 (human single-stranded DNA-binding protein 1) (from UniProt Q9BQ15 1-211)”, the binding result in experiment [2] and in experiment [3] was “binds” throughout.
For “Replication protein A (RPA) complex, endogenous (from UniProt P27694 1-616; P15927 1-270; P35244 1-121)”, the binding entry (in the experiment with Myc-INTS3 (human) [4]; in experiment [5]) was “no binding” each time.

B1: HA-ATRIP (ATR-interacting protein) (protein, UniProt Q8WXE1 1-791)
chain: MAGTSAPGSKRRSEPPAPRPGPPPGTGHPPSKRARGFSAAAAPDPDDPFGAHGDFTADDLEELDTLASQALSQCPAAARDVSSDHKVHRLLDGMSKNPSGKNRETVPIKDNFELEVLQAQYKELKEKMKVMEEEVLIKNGEIKILRDSLHQTESVLEEQRRSHFLLEQEKTQALSDKEKEFSKKLQSLQSELQFKDAEMNELRTKLQTSERANKLAAPSVSHVSPRKNPSVVIKPEACSPQFGKTSFPTKESFSANMSLPHPCQTESGYKPLVGREDSKPHSLRGDSIKQEEAQKSFVDSWRQRSNTQGSILINLLLKQPLIPGSSLSLCHLLSSSSESPAGTPLQPPGFGSTLAGMSGLRTTGSYDGSFSLSALREAQNLAFTGLNLVARNECSRDGDPAEGGRRAFPLCQLPGAVHFLPLVQFFIGLHCQALQDLAAAKRSGAPGDSPTHSSCVSSGVETNPEDSVCILEGFSVTALSILQHLVCHSGAVVSLLLSGVGADSAAGEGNRSLVHRLSDGDMTSALRGVADDQGQHPLLKMLLHLLAFSSAATGHLQASVLTQCLKVLVKLAENTSCDFLPRFQCVFQVLPKCLSPETPLPSVLLAVELLSLLADHDQLAPQLCSHSEGCLLLLLYMYITSRPDRVALETQWLQLEQEVVWLLAKLGVQSPLPPVTGSNCQCNVEVVRALTVMLHRQWLTVRRAGGPPRTDQQRRTVRCLRDTVLLLHGLSQKDKLFMMHCVEVLHQFDQVMPGVSMLIRGLPDVTDCEEAALDDLCAAETDVEDPEVECG
Consider B1, for which the binding entry with Myc-INTS3 (human) [1] is recorded as “binds”.
